PubChem BioAssay AID504764 – Drosophila RNAi Screening Center, 2011

- Screen: 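Genes whose knock-down alters Notch-dependent transcription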 (primary screen)
- Cells: Drosophila Kc167 cells
- Reagent: long dsRNA against Drosophila genes
- Time to read-out: about 5 days (4 days dsRNA, then 24 h after transfection)
- Challenge: transfection of constitutively active membrane-tethered Notch lacking the extracellular domain, read 24 h later
- Detection: 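Light from a Notch-responsive E(spl)m3 luciferase reporter under active Notch, with control-promoter and no-Notch reporter wells to normalise; raw counts from paired wells a and b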
- Reading the numbers: induced reporter light, run 1, well a and induced reporter light, run 1, well b: higher = more light from the Notch target reporter with active Notch; control promoter light, run 1, well a and control promoter light, run 1, well b: higher = more light from the viral control promoter (cell number, transfection, viability); uninduced reporter light, run 1, well a: higher = more light from the Notch target reporter without active Notch
- Hit rule: 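Hit if the duplicate-averaged log2 ratio of induced to control-promoter light gives a plate-wise z beyond ±2, or induced to uninduced beyond ±1.8; weak-control or discordant-duplicate wells dropped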
- Calls: active = modifier hit (raised or lowered Notch signal); inactive = not a hit
The screen tested about 22,000 reagents; below is a random part of those with a known target gene and a result. In the full data, 403 (1.9%) are marked active. 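Unnormalised raw counts per well; ratio z-scores behind the hit calls and whether each hit raises or lowers signal are not deposited.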 The numbers tell different reagents against one gene apart. A plus sign joins genes that one reagent is predicted to hit. Not stated in the record: the amount of reagent.

| target | dsRNA no. | induced reporter light, run 1, well a | induced reporter light, run 1, well b | control promoter light, run 1, well a | control promoter light, run 1, well b | uninduced reporter light, run 1, well a | Outcome |
| --- | --- | --- | --- | --- | --- | --- | --- |
| CG4763 | 1 | 1.55e5 | 1.94e5 | 2.83e5 | 2.62e5 | 9210 | inactive |
| CG4763 | 2 | 1.83e5 | 1.29e5 | 1.46e5 | 1.75e5 | 9765 | inactive |
| CG17726 | 1 | 1.95e5 | 1.69e5 | 2.58e5 | 2.83e5 | 13160 | inactive |
| CG30281 | 1 | 2.03e5 | 1.82e5 | 1.46e5 | 1.52e5 | 16232 | inactive |
| CG6414 | 1 | 1.36e5 | 1.53e5 | 3.23e5 | 2.57e5 | 11125 | inactive |
| CG13362 | 1 | 1.22e5 | 1.15e5 | 2.10e5 | 2.20e5 | 7845 | inactive |
| CG14186 | 1 | 1.57e5 | 1.25e5 | 70765 | 93430 | 11590 | inactive |
| Obp99c | 1 | 1.39e5 | 1.47e5 | 2.19e5 | 1.86e5 | 13855 | inactive |
| l(3)72Dp | 1 | 1.72e5 | 1.80e5 | 2.12e5 | 2.15e5 | 10055 | inactive |
| Cht2 | 1 | 87020 | 83595 | 1.44e5 | 1.68e5 | 7070 | inactive |
| CG7215 + Prx5 | 1 | 2.02e5 | 1.55e5 | 1.73e5 | 1.66e5 | 14710 | inactive |
| CG7215 + Prx5 | 2 | 8850 | 12350 | 9990 | 7115 | 815 | inactive |
| Cpr66D | 1 | 23005 | 13760 | 24950 | 25155 | 4350 | inactive |
| Cpr66D | 2 | 48495 | 31305 | 55080 | 47745 | 6260 | inactive |
| Cyp6t2Psi | 1 | 81815 | 1.04e5 | 86840 | 95045 | 9682 | inactive |
| SmF | 1 | 42870 | 38020 | 52185 | 59410 | 4350 | inactive |
| Ugt37C1 | 1 | 1.36e5 | 99790 | 92700 | 1.47e5 | 8885 | inactive |
| CG1024 | 1 | 1.05e5 | 1.09e5 | 87965 | 69165 | 5190 | inactive |
| CG18631 (retired record) | 1 | 44685 | 39235 | 42445 | 45940 | 4295 | inactive |
| Ak6 | 1 | 97690 | 92160 | 1.28e5 | 1.56e5 | 9910 | inactive |
| okr | 1 | 1.57e5 | 1.65e5 | 1.80e5 | 2.06e5 | 16940 | inactive |
| lmgA + lmgB | 1 | 1.54e5 | 1.83e5 | 1.01e5 | 1.25e5 | 16755 | inactive |
| pix | 1 | 9345 | 10682 | 22870 | 18150 | 1100 | inactive |
| Fmo-2 | 1 | 1.60e5 | 1.54e5 | 1.56e5 | 1.97e5 | 13165 | inactive |
| CG33061 | 1 | 1.38e5 | 1.64e5 | 2.25e5 | 1.48e5 | 7780 | inactive |
| CG33061 | 2 | – | – | – | – | – | inactive |
| RpL34a | 1 | 1.42e5 | 1.29e5 | 1.90e5 | 1.43e5 | 10985 | inactive |
| CG9784 | 1 | 1.02e5 | 84005 | 82545 | 93800 | 11990 | inactive |
| CG9263 | 1 | 1.38e5 | 1.61e5 | 1.57e5 | 1.75e5 | 13655 | inactive |
| CG14627 | 1 | 61355 | 50820 | 65835 | 94190 | 5438 | inactive |
| dan | 1 | 17470 | 12700 | 15985 | 22642 | 1530 | inactive |
| CG14322 | 1 | 1.96e5 | 1.71e5 | 2.15e5 | 2.24e5 | 16480 | inactive |
| CG8541 | 1 | 1.87e5 | 1.39e5 | 1.43e5 | 1.06e5 | 8950 | inactive |
| Mppe | 1 | 2.15e5 | 1.86e5 | 1.63e5 | 1.81e5 | 14200 | inactive |
| CG18507 | 1 | 1.18e5 | 1.20e5 | 1.31e5 | 1.26e5 | 8055 | inactive |
| CG18507 | 2 | 1.85e5 | 1.76e5 | 1.87e5 | 1.91e5 | 16680 | inactive |
| CG15212 | 1 | 1.02e5 | 90920 | 99165 | 1.09e5 | 6155 | inactive |
| puf | 1 | 23360 | 25730 | 13690 | 13200 | 3705 | inactive |
| CG4115 | 1 | 72975 | 66230 | 54085 | 50570 | 4770 | inactive |
| Calr | 1 | 1.06e5 | 1.20e5 | 91920 | 77045 | 5805 | inactive |
| PCNA | 1 | 44330 | 64825 | 73755 | 88985 | 5010 | inactive |
| aft | 1 | 1.23e5 | 1.14e5 | 2.07e5 | 2.05e5 | 9080 | inactive |
| Sil1 | 1 | 1170 | 2610 | 3090 | 3680 | 238 | inactive |
| iPLA2-VIA | 1 | 1.16e5 | 1.49e5 | 88785 | 48545 | 12010 | inactive |
| Myo95E | 1 | 1.90e5 | 1.87e5 | 2.05e5 | 1.98e5 | 16935 | inactive |
| CG10803 | 1 | 1.87e5 | 2.06e5 | 2.25e5 | 2.47e5 | 13690 | inactive |
| CG18420 | 1 | 1.44e5 | 1.46e5 | 1.37e5 | 1.42e5 | 11530 | inactive |
| pigeon | 1 | 2.44e5 | 1.99e5 | 2.04e5 | 2.12e5 | 20750 | inactive |
| CG8728 | 1 | 1.49e5 | 1.71e5 | 1.84e5 | 1.81e5 | 13555 | inactive |
| Mettl3 | 1 | 1.88e5 | 1.81e5 | 2.09e5 | 2.21e5 | 12860 | inactive |
| ATPsynE | 1 | 1.15e5 | 1.27e5 | 72200 | 65280 | 7610 | inactive |
| CG12659 | 1 | 1.25e5 | 1.14e5 | 2.04e5 | 2.18e5 | 9355 | inactive |
| CG34159 | 1 | 15560 | 19180 | 13525 | 13155 | 4395 | inactive |
| Unc-115b + p24-2 + Unc-115a | 1 | 66400 | 73960 | 65115 | 53515 | 3488 | inactive |
| Spindly | 1 | 61345 | 63215 | 78525 | 69975 | 5445 | inactive |
| CG33116 | 1 | 2.07e5 | 1.95e5 | 2.45e5 | 2.73e5 | 17032 | active |
| Ir7f | 1 | 1.59e5 | 1.39e5 | 3.02e5 | 3.06e5 | 11355 | inactive |
| mbo | 1 | 1.30e5 | 1.31e5 | 95020 | 80685 | 8825 | inactive |
| CG6356 | 1 | 1.53e5 | 1.50e5 | 1.84e5 | 1.87e5 | 13845 | inactive |
| Pstk + CG14210 + Tim9b | 1 | 68450 | 70330 | 70445 | 94545 | 6175 | inactive |
| CG33514 | 1 | 3.62e5 | 3.50e5 | 5.26e5 | 3.81e5 | 13220 | inactive |
| CG33514 | 2 | 3.08e5 | 2.13e5 | 2.13e5 | 2.03e5 | 11000 | inactive |
| Kdm4B | 1 | 1.86e5 | 1.82e5 | 1.92e5 | 2.19e5 | 14875 | inactive |
| gd | 1 | 1.28e5 | 1.30e5 | 2.36e5 | 2.06e5 | 8950 | inactive |

A few values from above.
For “control promoter light, run 1, well a”, Cpr66D #2 reads 55080
CG33061 #2, Outcome = inactive
Under “control promoter light, run 1, well a”, puf reads 13690
Value of CG4763 #2 under “induced reporter light, run 1, well a”: 1.83e5
Under “Outcome”, CG6414 shows inactive
Under “induced reporter light, run 1, well a”, CG18507 #2 has 1.85e5
